PubChem BioAssay AID1259425 | University of Nebraska Medical Center, 2018
Assay: 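Compare each knockdown with KSR1 silencing using changes in marker transcripts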 (primary screen). Cells: HCT116 human colon cancer cells. Reagents: siRNA pool against human genes, 50 nM siRNA. Measured: 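mRNA of six signature genes measured together by branched-DNA assay after 50 nM siRNA pool, blank removed, divided by geometric mean of two housekeeping genes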. Reading the numbers: BNIP3L mRNA: higher = more BNIP3L transcript after knockdown.
The whole screen tested about 14,000 reagents; this is a random part of them. Not all columns of the deposit are shown. Not given: the time to read-out.

How did the screen score SLC6A15 (GeneID 55117)?
BNIP3L mRNA, set 1: 0.0514

With SAA2 (GeneID 6289), how do the results read?
BNIP3L mRNA, set 1: 0.212

For TSG101 (GeneID 7251), what does the deposit list?
BNIP3L mRNA, set 1: 0.0702

For TMEM107 (GeneID 84314), what was measured?
BNIP3L mRNA, set 1: 0.256

What did the screen give for DLEC1 (GeneID 9940)?
BNIP3L mRNA, set 1: 0.133

How did the screen score EREG (GeneID 2069)?
BNIP3L mRNA, set 1: 0.0643

For RPL29 (GeneID 6159), what was measured?
BNIP3L mRNA, set 1: 0.0587

How did the screen score CLEC16A (GeneID 23274)?
BNIP3L mRNA, set 1: 0.0962

Which result is listed for UGT2B7 (GeneID 7364)?
BNIP3L mRNA, set 1: 0.093

What is on record for RNF19A (GeneID 25897)?
BNIP3L mRNA, set 1: 0.0991

Which result is listed for PABPC3 (GeneID 5042)?
BNIP3L mRNA, set 1: 0.119

With DPEP2 (GeneID 64174), what does the deposit list?
BNIP3L mRNA, set 1: 0.135

What is on record for PPP1CB (GeneID 5500)?
BNIP3L mRNA, set 1: 0.0507

How did the screen score RNF11 (GeneID 26994)?
BNIP3L mRNA, set 1: 0.0904

For ABCB5 (GeneID 340273), what does the deposit list?
BNIP3L mRNA, set 1: 0.138

How did the screen score CNOT2 (GeneID 4848)?
BNIP3L mRNA, set 1: 0.115

With TRIM22 (GeneID 10346), what does the deposit list?
BNIP3L mRNA, set 1: 0.106

For TAF6L (GeneID 10629), how do the results read?
BNIP3L mRNA, set 1: 0.0518

What is on record for TMBIM6 (GeneID 7009)?
BNIP3L mRNA, set 1: 0.154

How did the screen score NDUFA2 (GeneID 4695)?
BNIP3L mRNA, set 1: 0.181

For COBL (GeneID 23242), what was measured?
BNIP3L mRNA, set 1: 0.158

For SPMIP6 (GeneID 84688), how do the results read?
BNIP3L mRNA, set 1: 0.115

How did the screen score RUFY2 (GeneID 55680)?
BNIP3L mRNA, set 1: 0.0553

With PATJ (GeneID 10207), what does the deposit list?
BNIP3L mRNA, set 1: 0.0284

What is on record for RAB11FIP5 (GeneID 26056)?
BNIP3L mRNA, set 1: 0.111

With WBP2 (GeneID 23558), what was measured?
BNIP3L mRNA, set 1: 0.102

What is on record for MPRIP (GeneID 23164)?
BNIP3L mRNA, set 1: 0.131

For NRF1 (GeneID 4899), what was measured?
BNIP3L mRNA, set 1: 0.154

Copied from the list.
For “BNIP3L mRNA, set 1”, EREG (GeneID 2069) has 0.0643
Result of TRIM22 (GeneID 10346) under “BNIP3L mRNA, set 1”: 0.106
